{"source": "PubChem BioAssay AID720710 (VTT Finland, 2013)", "purpose": "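Genes whose loss lowers DNA synthesis when an oncogene drives replication stress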 (primary screen)", "system": "human U-2 OS bone cancer cells, parental and a cyclin E (CCNE1) overexpressing line", "knock-down reagent": "single siRNA against human genes, 1 µM siRNA in the printed spot mix", "timing": "67 h", "challenge": "half the arrays: hydroxyurea 2 mM for 16 h, then 3 h recovery; other arrays untreated", "measured": "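EdU click signal imaged per DAPI-stained nucleus at 67 h; each spot divided by its subgrid median, then z-scored relative to non-targeting control spots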", "direction": "EdU z-score, cyclin E line, hydroxyurea: higher = more DNA synthesis than non-targeting controls", "note": "The deposit covers about 1,380 reagents; below is an unselected part. 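One array per condition without replicates; hydroxyurea arrays received 2 mM for 16 h plus 3 h recovery.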 Reagents against one gene are numbered here. Further read-outs or replicates are left out here."}
{"gene": "PTTG1", "reagent": 1, "EdU z-score, cyclin E line, hydroxyurea": 0.223}
{"gene": "PTTG1", "reagent": 2, "EdU z-score, cyclin E line, hydroxyurea": 0.988}
{"gene": "CBX3", "reagent": 1, "EdU z-score, cyclin E line, hydroxyurea": -3.62}
{"gene": "CBX3", "reagent": 2, "EdU z-score, cyclin E line, hydroxyurea": -0.694}
{"gene": "HDAC10", "reagent": 1, "EdU z-score, cyclin E line, hydroxyurea": -1.76}
{"gene": "HDAC10", "reagent": 2, "EdU z-score, cyclin E line, hydroxyurea": -0.634}
{"gene": "SIRT1", "reagent": 1, "EdU z-score, cyclin E line, hydroxyurea": -0.522}
{"gene": "SIRT1", "reagent": 2, "EdU z-score, cyclin E line, hydroxyurea": -0.4}
{"gene": "FLJ35220", "reagent": 1, "EdU z-score, cyclin E line, hydroxyurea": -0.459}
{"gene": "FLJ35220", "reagent": 2, "EdU z-score, cyclin E line, hydroxyurea": 1.02}
{"gene": "SETD3", "reagent": 1, "EdU z-score, cyclin E line, hydroxyurea": -1.28}
{"gene": "SETD3", "reagent": 2, "EdU z-score, cyclin E line, hydroxyurea": 0.734}
{"gene": "ABL1", "reagent": 1, "EdU z-score, cyclin E line, hydroxyurea": -0.457}
{"gene": "ABL1", "reagent": 2, "EdU z-score, cyclin E line, hydroxyurea": 1.46}

Entries above whose target name starts with C or c (2):
{"gene": "CBX3", "reagent": 1, "EdU z-score, cyclin E line, hydroxyurea": -3.62}
{"gene": "CBX3", "reagent": 2, "EdU z-score, cyclin E line, hydroxyurea": -0.694}

Continued:
{"gene": "MCM5", "reagent": 1, "EdU z-score, cyclin E line, hydroxyurea": -0.499}
{"gene": "MCM5", "reagent": 2, "EdU z-score, cyclin E line, hydroxyurea": -0.273}
{"gene": "POLN", "reagent": 1, "EdU z-score, cyclin E line, hydroxyurea": -0.114}
{"gene": "POLN", "reagent": 2, "EdU z-score, cyclin E line, hydroxyurea": 0.477}
{"gene": "EEF1E1", "reagent": 1, "EdU z-score, cyclin E line, hydroxyurea": -2.5}
{"gene": "EEF1E1", "reagent": 2, "EdU z-score, cyclin E line, hydroxyurea": 1.22}
{"gene": "SETX", "reagent": 1, "EdU z-score, cyclin E line, hydroxyurea": 0.517}
{"gene": "SETX", "reagent": 2, "EdU z-score, cyclin E line, hydroxyurea": 2}
{"gene": "DCLRE1C", "reagent": 1, "EdU z-score, cyclin E line, hydroxyurea": -1.76}
{"gene": "DCLRE1C", "reagent": 2, "EdU z-score, cyclin E line, hydroxyurea": -1.22}
{"gene": "PARP6", "reagent": 1, "EdU z-score, cyclin E line, hydroxyurea": -1.57}
{"gene": "PARP6", "reagent": 2, "EdU z-score, cyclin E line, hydroxyurea": -1.37}
{"gene": "RNF128", "reagent": 1, "EdU z-score, cyclin E line, hydroxyurea": 0.0424}
{"gene": "RNF128", "reagent": 2, "EdU z-score, cyclin E line, hydroxyurea": 2.41}
{"gene": "MBD1", "reagent": 1, "EdU z-score, cyclin E line, hydroxyurea": -2.41}
{"gene": "MBD1", "reagent": 2, "EdU z-score, cyclin E line, hydroxyurea": 0.206}
{"gene": "GNL1", "reagent": 1, "EdU z-score, cyclin E line, hydroxyurea": -1.1}
{"gene": "GNL1", "reagent": 2, "EdU z-score, cyclin E line, hydroxyurea": 0.886}
